Source: PubChem BioAssay AID2517 (National Center for Advancing Translational Sciences (NCATS), 2010)
Screen size: about 350,000 compounds; about 1,200 (0.34%) were called active. The inconclusive results got no clear call from the source; some entries with a clear call stand among them for comparison. Calls come from the whole dose curve; as a rule, active = well fitted inhibition curve with a large enough effect; inconclusive = small, poorly fitted or top-dose-only effect; inactive = no such curve, though single readings can be large or run the other way. Potencies of inconclusive entries are doubtful fits and often do not repeat.
Note: nearly all actives have a fitted effect of over 55% in size.
Potency is the fitted concentration of half-maximal effect.
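Throughout, for activity change, negative = inhibition: plate controls were vehicle for no effect and reference inhibitor for full effect.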

By UniProt entry, the sequences of proteins in these tests, tags left out.
UniProt P27695, whole entry, looked up: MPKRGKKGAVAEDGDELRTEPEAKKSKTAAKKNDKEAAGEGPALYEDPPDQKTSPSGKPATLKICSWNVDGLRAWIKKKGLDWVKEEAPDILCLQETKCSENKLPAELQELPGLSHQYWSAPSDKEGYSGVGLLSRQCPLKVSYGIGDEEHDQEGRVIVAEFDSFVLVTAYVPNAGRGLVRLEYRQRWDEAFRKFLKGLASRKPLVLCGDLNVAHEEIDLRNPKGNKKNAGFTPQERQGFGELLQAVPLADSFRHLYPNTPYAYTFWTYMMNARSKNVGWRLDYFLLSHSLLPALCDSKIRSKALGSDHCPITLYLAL

What follows are compounds tested against DNA repair nuclease/redox regulator APEX1 (Homo sapiens) (UniProt P27695) (assay: qHTS Assay for Inhibitors of the Human Apurinic/apyrimidinic Endonuclease 1 (APE1)). Conditions: recombinant APE1, TAMRA/BHQ-2 abasic DNA cleavage fluorescence; activity change, negative = inhibition: at 65.8 µM (top of the series).
How it was run: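 Quantitative HTS: incision of a TAMRA/BHQ-2 double-stranded substrate bearing a tetrahydrofuran abasic site by 0.75 nM APE1 raises fluorescence. Substrate 50 nM final, added after 15 min compound preincubation at room temperature; progress as third-minus-first kinetic read difference.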
With `CC(=O)C(C(C)=O)c1c(Cl)c(O)c(O)c2c(C(=O)c3ccccc3)coc12` the “activity change, negative = inhibition” value was inactive: -1.39%.
In the case of `COc1cccc(/C(C)=N/NC(=O)c2cc(-c3cccnc3)nc3ccccc23)c1`, the Potency is reported as inconclusive: 39.8 µM [inhibitor, single point].
For `O=C(O)CCCNC(=O)/C=C/c1ccco1`, the Potency was inconclusive: 15.8 µM [inhibitor, partial curve].
`CC(C)(C)c1cccc(OCCCSc2ncccn2)c1` was tested, and the Potency was inconclusive: 0.398 µM [inhibitor, partial curve].
With `CC1=CN2C(=N)/C(=C/c3ccc([N+](=O)[O-])o3)C(=O)N=C2S1` the Potency was inconclusive: 28.2 µM [inhibitor, partial curve].
`C=CCN(CC=C)C(=S)Nc1ccccc1` was tested, and the Potency was inconclusive: 7.94 µM [inhibitor, full curve, poor fit].
`COc1ccc(N/N=C(/C(C)=O)N2CCCc3ccccc32)cc1` was tested, and the Potency was inconclusive: 28.2 µM [inhibitor, single point].
`O=C(CSc1ccccc1)Nc1ccc(C(=O)Nc2ccc(O)cc2)cc1` was tested, and the “activity change, negative = inhibition” value was inactive: 4.16%.
`CCOc1ccc(S(=O)(=O)NCc2ccco2)c2ccccc12` was tested, and the “activity change, negative = inhibition” value was inactive: 1.54%.
With `COc1ccccc1N(Cc1cc(=O)[nH]c2ccccc12)C(=O)c1ccc([N+](=O)[O-])cc1` the Potency was inconclusive: 7.08 µM [inhibitor, single point].
For `CCc1ccc([C@H]2C(C(=O)O)=C[C@@H](CC3CCCC3)N2S(=O)(=O)c2ccc(C)cc2)cc1`, the “activity change, negative = inhibition” value was inactive: 4.53%.
For `CC(C)COC(=O)COc1cc(Cl)c(Cl)cc1Cl`, the Potency was “inactive”.
In the case of `O=C(Nc1ccc(Cc2ccc(NC(=O)C3CC3)c(O)c2)cc1O)C1CC1`, the “activity change, negative = inhibition” value is reported as inactive: -2%.
For `COc1cc(/C=C2\SC(=S)N(NC(=O)c3ccncc3)C2=O)ccc1O`, the Potency was inconclusive: 3.16 µM [inhibitor, single point].
For `N#C/C(=C\c1c(N2CCC(C(N)=O)CC2)nc2ccccn2c1=O)S(=O)(=O)c1ccccc1`, the Potency was inconclusive: 44.7 µM [inhibitor, single point].
For `COc1ccc(N2CC(C(=O)N/N=C/c3cc([N+](=O)[O-])ccc3O)CC2=O)cc1` (stereo unspecified), the “activity change, negative = inhibition” value was inactive: 3.73%.
With `CCOC(=O)C(C)CC(C)C(=O)N1CCOCCOCCN(C(=O)C(C)CC(C)C(=O)OCC)CCOCC1` (stereo unspecified) the “activity change, negative = inhibition” value was inactive: -1.51%.
`O=C(O)[C@@H]1C[C@H](CP(=O)(O)O)CCN1` was tested, and the Potency was inconclusive: 39.8 µM [inhibitor, single point].
With `CC(=O)NCCc1ccc(O)c(O)c1` the “activity change, negative = inhibition” value was inactive: 24.6%.
With `O=C(CN1C(=O)CNC1=O)Nc1cccc(C(F)(F)F)c1` the Potency was inconclusive: 0.282 µM [inhibitor, full curve].
With `Cc1ccc(C(NC(=O)C(C)C)c2cc([N+](=O)[O-])c3cccnc3c2O)cc1` (stereo unspecified) the Potency was inconclusive: 31.6 µM [inhibitor, single point].
With `O=C(COC(=O)c1ccc(S(=O)(=O)NCc2ccco2)cc1)c1ccccc1` the Potency was inconclusive: 44.7 µM [inhibitor, single point].
For `CC12CCC(C(=O)N(CCC#N)CCC#N)(CC1=O)C2(C)C` (stereo unspecified), the Potency was inconclusive: 5.01 µM [inhibitor, single point].
For `COc1ccc(-n2c(=O)c(-c3cccs3)nc3cnc(N4CCNCC4)nc32)cc1`, the Potency was inconclusive: 39.8 µM [inhibitor, single point].
For `C/C(N)=C(/C#N)C(=O)CSc1nnc(NC(C)C)s1`, the Potency was inconclusive: 35.5 µM [inhibitor, single point].
With `O=C(O)c1cccc(COc2ccc3c(c2)CCC3)c1` the Potency was inconclusive: 5.01 µM [inhibitor, single point].
For `COCCCn1cnnc1SCc1nc2sc(C(C)=O)c(C)c2c(=O)[nH]1`, the Potency was inconclusive: 25.1 µM [inhibitor, single point].
`Cc1ccc(C(=O)Nc2ccc(N3CCOCC3)nc2N2CCOCC2)cc1` was tested, and the “activity change, negative = inhibition” value was inactive: -2.6%.
With `Nc1ccc(N=Nc2ccccc2)c(N)n1` the Potency was “inactive”.
For `O=C1c2cc(O)cc(O)c2OC[C@@H]1c1ccc(O)c(O)c1`, the Potency was inconclusive: 25.1 µM [inhibitor, partial curve].
In the case of `COc1ccc(OCc2cc(C(=O)O)c(C)o2)cc1`, the Potency is reported as active: 25.1 µM.
With `CC(=O)c1ccc(S(=O)(=O)Nc2c(C)nn(C)c2C)cc1` the Potency was inconclusive: 18.9 µM [inhibitor, single point].
In the case of `COc1ccc(C(NC(=O)c2cccc(F)c2)c2ccccc2)cc1` (stereo unspecified), the Potency is reported as inconclusive: 44.7 µM [inhibitor, single point].
`CCCCc1c(C)nc2ccc(Br)cc2c1SC(N)N` was tested, and the Potency was inconclusive: 39.8 µM [inhibitor, single point].
In the case of `COc1ccccc1CNS(=O)(=O)c1ccc2[nH]cc(C(=O)O)c(=O)c2c1`, the Potency is reported as inconclusive: 39.8 µM [inhibitor, single point].
In the case of `O=C(CCS(=O)(=O)c1ccc(Br)cc1)Nc1ccc2c(c1)OCO2`, the Potency is reported as inconclusive: 44.7 µM [inhibitor, single point].
For `Cc1ccc(-c2cc(-c3ccco3)c(C#N)c(=O)[nH]2)cc1`, the Potency was active: 35.5 µM.
In the case of `O=C(OCC(=O)N1CCN(C(=O)c2ccco2)CC1)c1ccccc1OCc1ccc(Cl)cc1`, the Potency is reported as inconclusive: 11.2 µM [inhibitor, partial curve].
`Cc1cc(/C=N/NC(N)=S)c(C)n1-c1ccc(Br)cc1` was tested, and the Potency was inconclusive: 11.2 µM [inhibitor, partial curve, poor fit].
With `CN(C)c1ccc(/C=C2/SC(=O)N(CCN=C3NS(=O)(=O)c4ccccc43)C2=O)cc1` the “activity change, negative = inhibition” value was inactive: 2.71%.
For `Cc1ccc(/C=C/C(=O)c2ccc(C)cc2)cc1`, the “activity change, negative = inhibition” value was inactive: -1.58%.
With `CC1CCc2c(sc3nc(SCC(=O)O)n(-c4ccccc4)c(=O)c23)C1` (stereo unspecified) the Potency was inconclusive: 7.08 µM [inhibitor, single point].
With `O=C(CSc1nc2ccccc2c(=O)n1-c1ccc(F)cc1)NCc1ccco1` the Potency was inconclusive: 25.1 µM [inhibitor, single point].
In the case of `N#Cc1ccc(-c2ccco2)nc1SCC(=O)c1ccc(Cl)cc1`, the Potency is reported as inconclusive: 11.2 µM [inhibitor, full curve].
With `OCc1ccccc1CNCc1ccccc1` the “activity change, negative = inhibition” value was inactive: -0.592%.
With `CCC(=O)NC(c1cccs1)c1cc(Br)c2cccnc2c1O` (stereo unspecified) the “activity change, negative = inhibition” value was inactive: 22.7%.
